Reference: US20200121803A1
Results are given in words; binding and its absence hold for the method and conditions named. Some binding calls cover weakened binding; strength is not graded here.

B1: Ab1 (mouse anti-CD98 hybridoma mAb) (antibody, V domains shown)
VH: EVKLVESGGGLVQPGGSLRLSCATSGFTFTDYYMSWVRQPPGKALEWLGFIRNPANVYTTEYSASVKGRFTISRDNSQSILYLQMNTLRAEDSATYYCARASYGNSEGWFAYWGQGTLVTVSA
VL: DIVMSQSPSSLAVSVGEKVTMSCKSSQNLLYNNNQKNYLAWYQQKPGQSPKLLIYWASTRESGVPDRFTGSGSGTDFTLTISSVKAEDLAVYYCQQYYSYPRTFGGGTKLEIK
B2: Ab3 (mouse anti-CD98 hybridoma mAb) (antibody, V domains shown)
VH: EVKLVESGGGLVQPGNSLRLSCATSGFTFIDYYMSWVRQSPGKALEWLGFIRNKANGYTTEYSASVKGRFTISRDNSQSILYLQMDTLRAEDSATYYCTRDRPAWFVYWGQGTLVTVSA
VL: DIVMSQSPSSLAVSVGEKVTMSCKSSQSLLYSSNQKNYLAWYQQKPGQSPKLLIYWASTRESGVPDRFTGSGSGTDFTLTFSSVRAEDLAVYYCQQYYSYPYTFGGGTKLEIK
B3: Ab5 (mouse anti-CD98 hybridoma mAb) (antibody, V domains shown)
VH: EVKLVESGGGLVQPGGSLRLSCATSGFTFTDYYMTWVRQPPGKALEWLGFIRNKANGYTTEYSASVKGRFTISRDNSLSILYLQMNTLRAEDSATYYCARASYVNSEGWFAYWGQGTLVTVSA
VL: DIVMSQSPSSLAVSVGEKVTMSCKSSQSLLYSSNQKNYLAWYQQKLGQSPKLLIYWASTRESGVPDRFTGSGSGTDFTLTISSVKAEDLAVYYCQHYYSYPRTFGGGTKLEIK
B4: Ab6 (rat anti-CD98 hybridoma mAb) (antibody, V domains shown)
VH: QVQLKESGPGLAQPSQTLSLTCTVSGFSLSTYGVIWLRQPPGKGLEWMGVIWTNGNTNYNSTLKSRLSISRDTSESQVYLQMNSLQTEDTATYYCARHYYDGAYYYGYFDYWGQGVMVTVSS
VL: DIVMTQTPSSQAVSAGEKVTMSCKSSQSLLYSENKKNYLAWYQQKPGQSPKLLIYWASTRESGVPDRFIGSGSGTDFTLTISSVQAEDLAVYYCQQYYYFPYTFGAGTKLELK
B5: Ab7 (rat anti-CD98 hybridoma mAb) (antibody, V domains shown)
VH: QVQLKESGPGLVQPSQTLSLTCTVSGFSLSTYGVIWVRQPPGKGLEWMGVIWANGNTNYNSTLKSRLSISRDTSKSQVYLKMNSLQTEDTATYYCARHYYDGTYYYGYFDYWGQGVMVTVSS
VL: DIVMTQTPSSQAVSAGEKVTMNCKSSQSLLYSENKKNYLAWYQQKPGQSPKLLIYWASTRESGVPDRFIGSGSGTDFTLTISSVQAEDLAVYYCQQYYYFPYTFGPGTKLELK
B6: Ab9 (rat anti-CD98 hybridoma mAb) (antibody, V domains shown)
VH: QVQLKESGPGLVQPSQTLSLTCAVSGFSLSNYGVIWVRQPPGKGLEWMAVIWTNGNTNYNSTLKSRLSISRDTSKSQVYLKMNSLQTEDTATYYCARHYYDGTYYYGYFDYWGQGVMVTVSS
VL: DIVMTQTPSSQAVSAGEKVTMSCKSSQSLLYTENKKNYLAWYQQKPGQSPKLLIYWASTRESGVPDRFMGSGSGTDFTLTISSVQAEDLAVYYCQQYYYFPYMFGAGTKLELK
B7: Ab10 (rat anti-CD98 hybridoma mAb) (antibody, V domains shown)
VH: EVQLVESGGGLVQPGRSLKLSCAASGFTFSDYAMAWVRQAPKKSLEWVATIIYDGRGTYCRDSVKGRFTISRDNAKSTLYLQMDSLRSEDTATYYCARQGDGTYHYWGYFDYWGQGVMVTVSS
VL: DIVMTQSPSSLAVSAGETVTINCKSSQSLLSSGNQKNYLAWYQQKPGQSPKLLIYWASTRQSGVPDRFIGSGSGTDFTLTISSVQAEDLAIYYCQQYYDTPYTFGAGTKVDLK
B8: Ab11 (rat anti-CD98 hybridoma mAb) (antibody, V domains shown)
VH: EVQLVESGGGLVQPGRSLKLSCAASGFTFSDYAMAWVRQAPKKGLEWVAGIIYDGRGTYYRDSVKGRFTISRDNAKSTLYLQMDSLRSEDTATYYCARQGDGTYYYWGYFDYWGQGVMVTVSS
VL: DIVMTQSPSSLAVSAGETVTINCRSSQSLLSSGNQKNYLAWYQQKPGQSPKLLIYWASTRQSGVPDRFIGSGSGTDFTLTISSVQAEDLAIYYCQQYYDTPYTFGAGTKLELK
B9: Ab15 (rat anti-CD98 hybridoma mAb) (antibody, V domains shown)
VH: EVQLVESGGGLVQPGRSLKLSCAASGFTFSDYTMAWVRQAPKKGLEWVATIIYDGRGTYYRDSVKGRFTISRDNAKSTLYLQMDSLRSEDTATYYCARQSDGTYYYWGYFDYWGQGVMVTVSS
VL: DIVMTQSPSSLAVSAGETVTINCKSSQSLLFSGNQKNYLAWYQQKPGQSPKLLIYWASTRQSGVPDRFIGSGSGTDFTLTIRSVQAEDLAIYYCQQYYDSPYTFGAGTKLELK

molecular target: human CD98 (human); assay: hybridoma screening: ELISA on recombinant CD98-ECD and flow cytometry on CD98-expressing cells

binding, binds:
B1
B2
B3
B4
B5
B6
B7
B8
B9
